Structures can show the parent of a compound that is named as a salt. Some of the results follow. Hit calls seldom repeat between salt and free forms of one compound.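 In K562 cells expressing nanoluciferase-fused kinases, luminescence was recorded at 4 h intervals between 2 and 18 h, normalized as percent of control with DMSO at 100% and a positive control at 0%. A significant (2 sigma) signal drop marks a time point as decreased. The authors' rule for a hit is not shown and takes in more than the number of time points.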

Sequences of proteins named here, by UniProt entry; tags and fusion partners are left off. A change or cut given only in a name is not applied to a line headed by its entry.
UniProt P14616: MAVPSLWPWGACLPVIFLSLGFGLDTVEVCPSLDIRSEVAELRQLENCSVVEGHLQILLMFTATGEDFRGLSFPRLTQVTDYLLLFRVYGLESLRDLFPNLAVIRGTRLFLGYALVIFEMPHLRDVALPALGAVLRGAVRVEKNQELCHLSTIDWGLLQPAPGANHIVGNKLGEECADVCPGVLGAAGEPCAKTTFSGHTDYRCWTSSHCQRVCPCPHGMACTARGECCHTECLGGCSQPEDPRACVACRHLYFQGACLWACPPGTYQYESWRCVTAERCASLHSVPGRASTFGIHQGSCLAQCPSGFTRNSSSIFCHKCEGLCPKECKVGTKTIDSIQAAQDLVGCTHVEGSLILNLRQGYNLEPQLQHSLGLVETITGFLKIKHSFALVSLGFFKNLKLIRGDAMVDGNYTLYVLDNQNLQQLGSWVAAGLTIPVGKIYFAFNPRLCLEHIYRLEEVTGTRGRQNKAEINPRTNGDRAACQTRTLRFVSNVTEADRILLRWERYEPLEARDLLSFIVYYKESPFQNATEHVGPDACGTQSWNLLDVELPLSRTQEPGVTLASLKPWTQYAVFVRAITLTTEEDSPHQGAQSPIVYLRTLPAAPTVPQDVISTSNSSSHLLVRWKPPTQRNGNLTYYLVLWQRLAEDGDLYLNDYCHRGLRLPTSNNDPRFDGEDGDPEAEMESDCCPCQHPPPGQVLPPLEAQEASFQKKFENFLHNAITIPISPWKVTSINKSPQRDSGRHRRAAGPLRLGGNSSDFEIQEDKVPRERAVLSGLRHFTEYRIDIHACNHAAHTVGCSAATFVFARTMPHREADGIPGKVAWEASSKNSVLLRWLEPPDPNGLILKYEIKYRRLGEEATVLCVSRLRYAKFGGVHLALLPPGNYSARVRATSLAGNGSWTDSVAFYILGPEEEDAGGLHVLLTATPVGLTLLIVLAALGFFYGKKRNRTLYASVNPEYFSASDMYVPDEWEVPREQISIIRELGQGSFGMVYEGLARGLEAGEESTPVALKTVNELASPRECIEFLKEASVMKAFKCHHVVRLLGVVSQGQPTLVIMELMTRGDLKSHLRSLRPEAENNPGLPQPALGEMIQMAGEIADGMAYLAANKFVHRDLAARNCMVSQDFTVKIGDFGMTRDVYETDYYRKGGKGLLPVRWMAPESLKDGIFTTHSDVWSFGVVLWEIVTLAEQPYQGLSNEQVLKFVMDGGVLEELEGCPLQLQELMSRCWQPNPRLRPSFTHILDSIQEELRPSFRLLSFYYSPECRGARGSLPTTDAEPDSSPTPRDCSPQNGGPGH

The values that follow come from the supplement of paper PMC12823440, “Inhibitors supercharge kinase turnover through native proteolytic circuits” (Nature, 2025).

One assay deals with HER2 (UniProt P04626). The assay is described as follows: number of time points (of 5) at which kinase-Nluc abundance scored as decreased, DMSO-normalised (count); higher = more persistent destabilization. The conditions noted are these: K562; 2-18 h.
On to `CC(C)=CCC/C(C)=C/CC/C(C)=C/C=C/C(C)=C/C(=O)O` [Peretinoin] (10 µM), for which the “number of time points” value amounted to 0.

With `C=CC(=O)N1CC[C@@H](Oc2nc(Nc3ccc(N4CCC(N5CCN(C)CC5)CC4)cc3)c(C(N)=O)nc2CC)C1` [Naquotinib (mesylate)] (2.5 µM), the “number of time points” value was determined as 1.

For the molecule `CC(Sc1nc2c(cnn2-c2cccc(Cl)c2)c(=O)[nH]1)C(N)=O` (stereo not drawn) (10 µM), the “number of time points” value was found to be 0.

In the case of `Cc1cc(O)c2c(c1)C(=O)c1cccc(O)c1C2=O` [Chrysophanol] (2 µM), the “number of time points” value was 0.

On to `O=C1OC(/C=C/c2ccccc2)=NC/1=C\c1cccnc1` (10 µM), for which the “number of time points” value turned out to be 0.

The next assay deals with INSRR (UniProt P14616). The description is as above. The conditions noted are these: K562; 2-18 h.
For the molecule `CN1CCN(c2cc(-c3ccncc3)c(-c3ccc4ccccc4c3)nn2)CC1` (10 µM), the “number of time points” value is 0.

For `CC(O)(C#Cc1ccc2c(c1)N(c1nc(N)ncc1Cl)CC2)c1nccs1` (stereo not drawn) (2.5 µM), the “number of time points” value turned out to be 0.

For the molecule `COc1ccc(Nc2ncc(C(F)(F)F)c(NC3CC3)n2)cc1OC` (10 µM), the “number of time points” value turned out to be 2.

On to `O=c1cc(N2CCOCC2)oc2c(-c3ccc4c(c3)OCCO4)csc12` (2.5 µM), for which the “number of time points” value amounted to 0.

With `N[C@@H]1CCCN(c2c(/C=C3\SC(=O)NC3=O)cccc2-c2ccccc2)C1` (10 µM), the “number of time points” value is 0.

In the case of `N#Cc1ccc(-c2cnc3[nH]cc(NC(=O)c4cccnc4)c3c2)cc1` (10 µM), the “number of time points” value was 0.

For `COc1ccc(Br)cc1NC(=O)Nc1cccc2c1ccn2Cc1ccnc(N)c1` (2.5 µM), the “number of time points” value is 0.

Consider `COc1cc(N2CCOCC2)ccc1Nc1ncc(F)c(Nc2ccccc2NS(C)(=O)=O)n1` (10 µM), for which the “number of time points” value amounted to 0.

On to `COc1ccc(-c2cc(=O)c3c(OC)cc(OC)c(OC)c3o2)cc1` [6-Demethoxytangeretin] (10 µM), for which the “number of time points” value came out at 0.

As to `COc1cc2c(cc1O)C[C@H]1c3cc(O)c(OC)cc3CC[N@@+]1(C)C2` [Phellodendrine] (10 µM), the “number of time points” value was found to be 0.

Take `CO[C@H]1C[C@@H]2CC[C@@H](C)[C@@](O)(O2)C(=O)C(=O)N2CCCC[C@H]2C(=O)O[C@H]([C@H](C)C[C@@H]2CC[C@@H](OC(=O)C(C)(CO)CO)[C@H](OC)C2)CC(=O)[C@H](C)/C=C(\C)[C@@H](O)[C@@H](OC)C(=O)[C@H](C)C[C@H](C)/C=C/C=C/C=C/1C` [Temsirolimus] (2.5 µM): the “number of time points” value came to 0.

`O=C(ON=C1c2ccccc2-c2nc3ccccc3nc21)c1ccco1` (2.5 µM): the “number of time points” value came out at 0.

On to `COc1ccc(S(=O)(=O)Nc2cc(-c3c(O)ccc4ccccc34)c(O)c3ccccc23)cc1` (10 µM), for which the “number of time points” value was 0.

On to `Cc1cccc(COc2cccc(/C=C3\C(=O)NN(c4ccccc4)C3=O)c2)c1` (10 µM), for which the “number of time points” value came to 0.

As for `CC(C)Oc1ccc(F)c(-c2cnc(N)c(C(=O)Nc3cnccc3N3CCC[C@@H](C(=O)O)C3)n2)c1` (2 µM), the “number of time points” value stood at 0.

For `COc1cc(F)ccc1-c1ncnc(Nc2cccc(C[S@](C)(=N)=O)c2)n1` [Atuveciclib] (2.5 µM), the “number of time points” value was 0.

As to `CC(C)n1ncnc1-c1cn2c(n1)-c1ccc(O[C@@H](C)C(N)=O)cc1OCC2` (10 µM), the “number of time points” value was 0.

With `Cn1c(CNc2cccc(C(=O)NCc3ccccc3C(F)(F)F)c2)nnc1-c1ccncc1` (10 µM), the “number of time points” value was 0.

Regarding `O=Nc1c(-c2c(O)[nH]c3cc(Br)ccc23)[nH]c2ccccc12` [GSK 3 Inhibitor IX] (2.5 µM), the “number of time points” value stood at 0.

Turning to `Nc1ncc(C(=O)NC2CN(C(=O)C3CC3)C2)c2ccc(-c3cccc(F)c3)nc12` (2 µM), the “number of time points” value was 0.

With `O=C(Nc1cc(Cl)cc2c1[nH]c1cnccc12)c1cccnc1` (10 µM), the “number of time points” value stood at 0.

Take `c1ccc(Cn2c(-c3ccc(OC[C@H](C4CCNCC4)n4c(-c5ccccc5)nc5ccccc54)cc3)nc3ccccc32)cc1` [Deltarasin] (2.5 µM): the “number of time points” value was 0.

For the molecule `COc1cc2ncnc(Nc3cccc(I)c3)c2cc1OC` (2.5 µM), the “number of time points” value is 0.

`Clc1ccc(C(c2ccc(Cl)cc2)[n+]2ccn(CC(OCc3ccc(Cl)cc3Cl)c3ccc(Cl)cc3Cl)c2)cc1` (stereo not drawn) [Calmidazolium chloride] (2.5 µM): the “number of time points” value was 2.

In the case of `O=C(Nc1cccnc1)c1cc(-c2ccnc(F)c2)ccc1OCc1ccccc1` (10 µM), the “number of time points” value stood at 0.

`c1nn(C2CCOCC2)cc1Nc1ncc2nnn(-c3ccc4cn[nH]c4c3)c2n1` (10 µM): the “number of time points” value was 0.

Turning to `COC(=O)[C@H](CCSC)NC(=O)c1ccc(NC[C@@H](N)CS)cc1-c1ccccc1` [FTI-277 (hydrochloride)] (10 µM), the “number of time points” value is 0.

Turning to `Cc1cc(Nc2cc(N)ncn2)c(=O)n2c1C(=O)NC21CCCCC1` [Tomivosertib] (10 µM), the “number of time points” value came out at 0.

On to `CCc1c[nH]c2ncnc(N3CC[C@](N)(CNC(=O)c4ccc(F)cc4F)C3)c12` (10 µM), for which the “number of time points” value amounted to 0.

For `Nc1ncnc2c1nc(Br)n2[C@@H]1O[C@@H]2COP(=O)(O)O[C@H]2[C@H]1O` [8-Bromo-cAMP sodium salt] (10 µM), the “number of time points” value was determined as 0.

`CC(C)n1c(=O)n(C)c2cnc3cc(F)c(-c4ccc(OCCCN5CCCCC5)nc4)cc3c21` (10 µM): the “number of time points” value is 0.

`Cc1ccc(C)c(OCCn2cc(C(=O)O)c3ccccc32)c1` (10 µM): the “number of time points” value is 0.

Consider `COCCOc1ccc2c(c1)ncn2-c1ccc2cccc(N3CCC(N)CC3)c2n1` (10 µM), for which the “number of time points” value is 2.

With `CC(C)=CCC/C(C)=C/CC/C(C)=C/C=C/C(C)=C/C(=O)O` [Peretinoin] (10 µM), the “number of time points” value was determined as 0.

With `C=CC(=O)N1CC[C@@H](Oc2nc(Nc3ccc(N4CCC(N5CCN(C)CC5)CC4)cc3)c(C(N)=O)nc2CC)C1` [Naquotinib (mesylate)] (2.5 µM), the “number of time points” value was determined as 0.

For `CC(Sc1nc2c(cnn2-c2cccc(Cl)c2)c(=O)[nH]1)C(N)=O` (stereo not drawn) (10 µM), the “number of time points” value turned out to be 0.

In the case of `Cc1cc(O)c2c(c1)C(=O)c1cccc(O)c1C2=O` [Chrysophanol] (2 µM), the “number of time points” value amounted to 0.

With `O=C1OC(/C=C/c2ccccc2)=NC/1=C\c1cccnc1` (10 µM), the “number of time points” value is 0.
